From patent publication KR20160003317A
These are yes or no findings as the source states them, for the method shown. Some binding calls cover weakened binding; strength is not graded here. Each block holds one binder with its values, some of them ahead of it.

By UniProt entry, the sequences of proteins in these tests, tags left out. Residues count along the entry.
UniProt P02769, residues 25-607: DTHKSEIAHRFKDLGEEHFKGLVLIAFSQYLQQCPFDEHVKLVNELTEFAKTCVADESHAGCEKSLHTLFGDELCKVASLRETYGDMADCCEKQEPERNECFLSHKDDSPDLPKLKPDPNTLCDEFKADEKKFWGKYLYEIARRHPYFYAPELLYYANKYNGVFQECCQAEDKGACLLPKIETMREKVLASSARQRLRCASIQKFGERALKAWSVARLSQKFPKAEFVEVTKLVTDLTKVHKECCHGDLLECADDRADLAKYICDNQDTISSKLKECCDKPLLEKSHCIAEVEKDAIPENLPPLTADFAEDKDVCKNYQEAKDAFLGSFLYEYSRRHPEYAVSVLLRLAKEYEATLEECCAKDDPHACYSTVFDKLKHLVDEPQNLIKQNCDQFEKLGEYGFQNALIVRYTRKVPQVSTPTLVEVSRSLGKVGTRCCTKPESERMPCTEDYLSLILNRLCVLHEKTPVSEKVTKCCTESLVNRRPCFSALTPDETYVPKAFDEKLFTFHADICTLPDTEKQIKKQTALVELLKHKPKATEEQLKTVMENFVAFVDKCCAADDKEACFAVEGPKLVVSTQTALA

Target: 송아지 혈청 알부민(BSA) (bovine (printed: 송아지 혈청 알부민)) (UniProt P02769)
Assay: phage ELISA, 1% BSA coated, anti-M13-peroxidase, absorbance 492 nm

binding: binds
B1: SC06-421 (scFv)
scFv: EVQLVESGAEVKKPGESLKISCKGSGYSFTSHWIGWVRQMPGKGLEWMGIIYPGDSDTRYSPSFQGQVTISVDKSISTAYLQWSSLKASDTAMYYCARLGSSRWSHFDYWGQGTLVTVSSGTGGSGGTGSGTGGSTQSALTQPPSASGSPGQSVTISCTGTSTDVGGYNYVSWYQHHPGKAPKLVIYGVSKRPSRVPDRFSGSKSGNTASLTVSGLQAEDEADYYCSSYAGSNNLVFGGGTKLTVL

binding: binds
B2: SC05-140 (scFv)
scFv: EVQLVESGGVAVQPGRSLRLSCAASGFSFRDYGMHWVRQAAGKGLEWVAFIWPHGVNRFYADSMEGRFTISRDDSKNMLYLEMNNLRTEDTALYYCTRDQDYVPRKYFDLWGRGTLVTVSSGTGGSGGTGSGTGGSTSYVLTQPPSVSVAPGQTARITCGGNNIGSKSVHWYQQKPGQSPVLVMYQDRRRPSGIPERFSGSNSGHTATLTISGTQAMDEADYYCQAWDSSTGVFGTGTQLTVL
